{
  "sequences": {"note": "Protein sequences, listed by entry. Tags and fused reporters are not part of them. Lines headed by an entry give the natural chain unless they say otherwise; changes in a name come on top.", "UniProt Q8NHU6": "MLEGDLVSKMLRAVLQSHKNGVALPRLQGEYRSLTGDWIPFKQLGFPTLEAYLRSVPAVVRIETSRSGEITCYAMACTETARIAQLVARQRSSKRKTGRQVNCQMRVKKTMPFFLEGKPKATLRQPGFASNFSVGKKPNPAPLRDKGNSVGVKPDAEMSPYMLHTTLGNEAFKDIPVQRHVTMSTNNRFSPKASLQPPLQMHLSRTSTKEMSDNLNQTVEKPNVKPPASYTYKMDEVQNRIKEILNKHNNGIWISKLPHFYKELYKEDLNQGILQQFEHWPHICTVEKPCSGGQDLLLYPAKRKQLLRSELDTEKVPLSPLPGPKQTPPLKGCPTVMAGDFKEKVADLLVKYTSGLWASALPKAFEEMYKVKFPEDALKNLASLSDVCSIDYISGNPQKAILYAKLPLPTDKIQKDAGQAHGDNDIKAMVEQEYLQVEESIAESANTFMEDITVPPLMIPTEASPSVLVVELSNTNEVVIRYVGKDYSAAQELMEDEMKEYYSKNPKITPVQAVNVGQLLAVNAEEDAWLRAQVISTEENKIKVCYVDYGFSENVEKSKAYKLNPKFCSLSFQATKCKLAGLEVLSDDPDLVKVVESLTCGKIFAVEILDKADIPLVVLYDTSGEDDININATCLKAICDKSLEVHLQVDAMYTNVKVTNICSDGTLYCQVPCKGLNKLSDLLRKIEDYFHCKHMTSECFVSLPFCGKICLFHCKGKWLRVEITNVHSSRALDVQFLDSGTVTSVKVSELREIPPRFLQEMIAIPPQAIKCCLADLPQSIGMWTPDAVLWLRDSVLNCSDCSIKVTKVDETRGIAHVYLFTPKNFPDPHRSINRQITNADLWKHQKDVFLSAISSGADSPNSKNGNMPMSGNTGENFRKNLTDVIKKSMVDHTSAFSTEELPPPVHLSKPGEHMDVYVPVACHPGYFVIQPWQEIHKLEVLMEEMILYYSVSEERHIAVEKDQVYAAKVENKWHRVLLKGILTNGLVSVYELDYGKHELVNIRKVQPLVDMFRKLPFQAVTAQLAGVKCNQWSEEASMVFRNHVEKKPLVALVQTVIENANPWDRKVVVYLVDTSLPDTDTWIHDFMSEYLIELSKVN", "UniProt Q13428": "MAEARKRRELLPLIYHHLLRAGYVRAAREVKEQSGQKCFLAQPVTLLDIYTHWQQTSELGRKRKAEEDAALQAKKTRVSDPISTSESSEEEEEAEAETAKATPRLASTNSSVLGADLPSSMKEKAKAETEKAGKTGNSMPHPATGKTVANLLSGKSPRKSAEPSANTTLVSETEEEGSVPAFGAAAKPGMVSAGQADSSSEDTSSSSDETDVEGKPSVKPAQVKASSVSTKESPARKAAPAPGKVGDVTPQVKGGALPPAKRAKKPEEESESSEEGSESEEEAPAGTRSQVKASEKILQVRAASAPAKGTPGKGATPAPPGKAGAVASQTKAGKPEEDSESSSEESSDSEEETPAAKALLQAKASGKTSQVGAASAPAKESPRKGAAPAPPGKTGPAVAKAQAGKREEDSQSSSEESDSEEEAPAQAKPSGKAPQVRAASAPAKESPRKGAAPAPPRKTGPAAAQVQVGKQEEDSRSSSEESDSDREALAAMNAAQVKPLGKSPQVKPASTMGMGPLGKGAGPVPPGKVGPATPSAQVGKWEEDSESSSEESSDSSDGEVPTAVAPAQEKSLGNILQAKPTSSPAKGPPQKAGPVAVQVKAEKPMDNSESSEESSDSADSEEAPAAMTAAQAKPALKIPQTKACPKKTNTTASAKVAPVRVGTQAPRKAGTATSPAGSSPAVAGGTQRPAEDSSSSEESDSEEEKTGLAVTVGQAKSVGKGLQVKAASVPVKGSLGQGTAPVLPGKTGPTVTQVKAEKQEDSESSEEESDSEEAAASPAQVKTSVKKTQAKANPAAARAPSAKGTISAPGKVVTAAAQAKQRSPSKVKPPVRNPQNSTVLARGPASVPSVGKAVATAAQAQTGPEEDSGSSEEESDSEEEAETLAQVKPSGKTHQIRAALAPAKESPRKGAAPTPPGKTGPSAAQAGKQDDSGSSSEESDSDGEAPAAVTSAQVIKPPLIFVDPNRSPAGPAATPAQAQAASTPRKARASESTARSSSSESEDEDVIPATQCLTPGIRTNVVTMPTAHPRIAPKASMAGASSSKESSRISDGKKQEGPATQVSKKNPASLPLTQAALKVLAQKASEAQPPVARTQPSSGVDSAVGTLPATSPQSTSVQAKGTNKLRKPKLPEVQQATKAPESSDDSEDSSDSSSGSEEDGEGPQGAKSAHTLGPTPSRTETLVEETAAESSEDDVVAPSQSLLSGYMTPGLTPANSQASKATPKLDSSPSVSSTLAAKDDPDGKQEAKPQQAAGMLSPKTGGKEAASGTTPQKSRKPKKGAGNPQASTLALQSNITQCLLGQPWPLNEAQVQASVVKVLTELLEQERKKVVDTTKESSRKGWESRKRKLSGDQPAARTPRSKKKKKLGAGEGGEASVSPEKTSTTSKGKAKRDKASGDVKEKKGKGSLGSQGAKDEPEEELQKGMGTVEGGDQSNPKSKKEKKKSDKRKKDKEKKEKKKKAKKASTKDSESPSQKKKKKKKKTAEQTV", "UniProt Q9P2M4": "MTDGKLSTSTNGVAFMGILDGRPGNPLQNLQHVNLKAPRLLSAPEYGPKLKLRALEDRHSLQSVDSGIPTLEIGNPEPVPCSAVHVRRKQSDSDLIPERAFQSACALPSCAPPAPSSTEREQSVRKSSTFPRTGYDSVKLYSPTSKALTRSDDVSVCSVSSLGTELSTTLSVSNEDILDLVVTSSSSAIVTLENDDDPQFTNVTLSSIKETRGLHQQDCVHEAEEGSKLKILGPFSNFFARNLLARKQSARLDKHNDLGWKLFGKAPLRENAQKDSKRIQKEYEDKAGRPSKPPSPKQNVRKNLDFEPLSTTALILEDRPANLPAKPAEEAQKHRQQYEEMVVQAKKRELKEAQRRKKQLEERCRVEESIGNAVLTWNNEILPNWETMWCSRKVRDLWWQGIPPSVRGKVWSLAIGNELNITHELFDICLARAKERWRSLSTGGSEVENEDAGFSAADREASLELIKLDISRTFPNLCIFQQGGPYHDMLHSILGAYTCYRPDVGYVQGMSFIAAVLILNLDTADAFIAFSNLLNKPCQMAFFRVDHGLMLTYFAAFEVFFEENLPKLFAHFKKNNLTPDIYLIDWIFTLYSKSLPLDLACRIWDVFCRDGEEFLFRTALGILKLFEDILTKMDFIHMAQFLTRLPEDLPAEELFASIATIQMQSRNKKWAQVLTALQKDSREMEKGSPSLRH", "UniProt Q5JUR7": "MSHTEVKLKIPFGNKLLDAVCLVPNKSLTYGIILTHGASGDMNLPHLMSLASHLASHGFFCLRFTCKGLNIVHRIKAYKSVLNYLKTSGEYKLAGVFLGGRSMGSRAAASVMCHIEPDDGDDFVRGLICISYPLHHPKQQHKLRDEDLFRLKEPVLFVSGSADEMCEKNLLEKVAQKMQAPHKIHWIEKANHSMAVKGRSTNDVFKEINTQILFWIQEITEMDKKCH", "UniProt Q96CG3": "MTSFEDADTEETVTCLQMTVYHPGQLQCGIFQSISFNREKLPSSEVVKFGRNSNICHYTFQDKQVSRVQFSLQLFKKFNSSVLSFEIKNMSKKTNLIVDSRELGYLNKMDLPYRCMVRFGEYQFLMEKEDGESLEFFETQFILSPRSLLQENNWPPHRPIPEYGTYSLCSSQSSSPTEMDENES", "UniProt Q8TEA7": "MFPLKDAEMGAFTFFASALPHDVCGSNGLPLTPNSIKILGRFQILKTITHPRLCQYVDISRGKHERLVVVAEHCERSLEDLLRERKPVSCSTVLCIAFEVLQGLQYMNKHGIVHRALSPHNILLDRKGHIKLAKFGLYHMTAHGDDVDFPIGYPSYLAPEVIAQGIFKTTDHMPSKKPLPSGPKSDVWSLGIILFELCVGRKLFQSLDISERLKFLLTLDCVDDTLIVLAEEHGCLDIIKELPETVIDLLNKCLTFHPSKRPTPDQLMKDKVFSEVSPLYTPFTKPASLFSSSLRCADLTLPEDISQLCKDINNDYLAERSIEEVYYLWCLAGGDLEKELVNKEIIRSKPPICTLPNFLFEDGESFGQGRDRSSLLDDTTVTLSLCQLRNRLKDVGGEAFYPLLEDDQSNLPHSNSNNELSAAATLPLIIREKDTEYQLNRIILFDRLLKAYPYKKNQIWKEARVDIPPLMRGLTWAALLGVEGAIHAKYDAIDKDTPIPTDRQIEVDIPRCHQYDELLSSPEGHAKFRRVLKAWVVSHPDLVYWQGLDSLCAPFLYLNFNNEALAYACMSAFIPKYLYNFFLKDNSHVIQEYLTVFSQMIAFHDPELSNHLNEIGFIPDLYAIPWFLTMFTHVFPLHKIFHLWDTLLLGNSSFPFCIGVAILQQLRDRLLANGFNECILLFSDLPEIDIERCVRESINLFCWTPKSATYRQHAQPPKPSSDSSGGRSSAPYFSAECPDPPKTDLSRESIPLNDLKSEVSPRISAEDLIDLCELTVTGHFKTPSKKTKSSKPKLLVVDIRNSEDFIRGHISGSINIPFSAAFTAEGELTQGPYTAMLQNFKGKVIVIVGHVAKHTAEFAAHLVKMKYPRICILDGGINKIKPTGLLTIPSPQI", "UniProt Q9P0N9": "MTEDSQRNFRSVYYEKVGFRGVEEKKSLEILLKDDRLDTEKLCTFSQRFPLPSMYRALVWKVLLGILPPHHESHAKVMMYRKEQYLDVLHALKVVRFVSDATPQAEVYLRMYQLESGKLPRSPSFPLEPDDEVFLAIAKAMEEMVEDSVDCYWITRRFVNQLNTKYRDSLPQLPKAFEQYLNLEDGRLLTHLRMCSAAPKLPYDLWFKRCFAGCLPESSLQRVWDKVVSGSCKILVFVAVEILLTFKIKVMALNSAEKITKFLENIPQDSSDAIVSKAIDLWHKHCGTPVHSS", "UniProt Q6NUS6": "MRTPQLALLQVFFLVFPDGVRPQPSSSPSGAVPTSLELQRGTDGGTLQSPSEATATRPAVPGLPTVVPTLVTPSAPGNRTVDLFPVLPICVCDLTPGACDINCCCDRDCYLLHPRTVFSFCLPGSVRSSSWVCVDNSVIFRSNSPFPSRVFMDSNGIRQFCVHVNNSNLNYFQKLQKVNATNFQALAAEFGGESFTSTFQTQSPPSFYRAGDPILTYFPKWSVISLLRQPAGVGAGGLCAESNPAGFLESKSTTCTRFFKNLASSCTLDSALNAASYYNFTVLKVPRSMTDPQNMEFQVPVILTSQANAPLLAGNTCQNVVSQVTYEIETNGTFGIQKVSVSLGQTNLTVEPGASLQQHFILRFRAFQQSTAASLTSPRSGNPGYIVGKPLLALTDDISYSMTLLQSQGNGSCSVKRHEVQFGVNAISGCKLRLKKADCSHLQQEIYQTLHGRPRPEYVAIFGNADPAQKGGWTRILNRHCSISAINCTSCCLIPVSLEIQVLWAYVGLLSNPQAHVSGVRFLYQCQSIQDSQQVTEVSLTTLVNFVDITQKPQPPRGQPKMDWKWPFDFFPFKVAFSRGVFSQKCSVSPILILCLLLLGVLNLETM", "UniProt Q5TEJ8": "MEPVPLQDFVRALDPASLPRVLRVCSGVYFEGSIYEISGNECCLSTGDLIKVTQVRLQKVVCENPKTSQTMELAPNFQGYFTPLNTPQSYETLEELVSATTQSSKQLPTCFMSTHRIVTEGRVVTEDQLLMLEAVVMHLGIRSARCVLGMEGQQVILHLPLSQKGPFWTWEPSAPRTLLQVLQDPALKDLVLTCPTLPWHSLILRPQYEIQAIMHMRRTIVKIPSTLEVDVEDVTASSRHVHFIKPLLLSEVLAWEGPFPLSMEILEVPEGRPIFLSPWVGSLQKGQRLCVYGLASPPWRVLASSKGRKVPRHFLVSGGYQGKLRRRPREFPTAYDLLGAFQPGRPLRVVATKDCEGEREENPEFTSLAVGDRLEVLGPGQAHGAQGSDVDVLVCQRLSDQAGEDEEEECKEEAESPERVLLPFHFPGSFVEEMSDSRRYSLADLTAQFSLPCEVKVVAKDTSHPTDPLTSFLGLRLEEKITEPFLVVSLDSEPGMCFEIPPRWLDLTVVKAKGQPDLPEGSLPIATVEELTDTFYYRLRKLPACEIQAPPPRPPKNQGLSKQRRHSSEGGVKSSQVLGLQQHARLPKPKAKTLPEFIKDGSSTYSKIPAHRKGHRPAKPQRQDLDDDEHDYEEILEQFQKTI", "UniProt P10646, whole entry, looked up": "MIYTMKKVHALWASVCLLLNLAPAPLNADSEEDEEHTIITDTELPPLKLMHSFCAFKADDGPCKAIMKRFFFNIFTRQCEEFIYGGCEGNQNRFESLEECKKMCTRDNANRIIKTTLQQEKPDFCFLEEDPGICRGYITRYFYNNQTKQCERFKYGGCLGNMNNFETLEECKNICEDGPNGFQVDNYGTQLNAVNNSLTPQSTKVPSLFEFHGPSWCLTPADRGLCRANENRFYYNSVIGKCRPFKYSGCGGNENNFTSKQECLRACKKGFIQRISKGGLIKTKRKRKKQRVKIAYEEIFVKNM", "UniProt Q9UHQ7": "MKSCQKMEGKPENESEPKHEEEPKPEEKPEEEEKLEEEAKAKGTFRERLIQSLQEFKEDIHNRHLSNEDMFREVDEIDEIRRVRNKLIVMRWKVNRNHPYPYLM"},
  "source": "the supplement of paper PMC10849652",
  "note": "The list shows a part of the results.",
  "data": [
    {"compound": "CC[C@@H]1C(=O)N(C)c2cnc(Nc3ccc(C(=O)NC4CCN(C)CC4)cc3OC)nc2N1C1CCCC1", "test": "log2 fold change, soluble protein after heating vs DMSO (PISA); higher = thermal stabilisation; K562 cells, 10 uM, 30 min; active = over 0.2 and 3.5 SD of the protein, either way, in both replicates (recomputed)", "in_short": "(§1)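 For each measurement, 10 μM compound was applied for 30 min to K562 cells at 2×10^6 cells/mL. Aliquots were heated for 3 min across 48°C-58°C, pooled, and extracted in PBS with 0.5% NP-40 at 4°C; the supernatant after 21,000xg for 90 min was soluble protein. This was quantified by TMTpro 16plex LC-MS/MS with channel sums equalised, and thermal stability was reported relative to control samples from duplicates, on a log2 fold-change scale.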", "values": [
      {"target": "TBC1D2 (UniProt Q9BYX2)", "log2 fold change": "inactive: -0.055"},
      {"target": "TEX10 (UniProt Q9NXF1)", "log2 fold change": "inactive: 0.791"},
      {"target": "TLE3 (UniProt Q04726)", "log2 fold change": "inactive: 0.138"},
      {"target": "TDRD7 (UniProt Q8NHU6)", "log2 fold change": "inactive: 0.129"},
      {"target": "TFDP2 (UniProt Q14188)", "log2 fold change": "inactive: -0.071"},
      {"target": "TCOF1 isoform 6 (UniProt Q13428)", "log2 fold change": "inactive: 0.04"},
      {"target": "TDRD15 (UniProt B5MCY1)", "log2 fold change": "inactive: -0.241"},
      {"target": "TBC1D2B (UniProt Q9UPU7)", "log2 fold change": "inactive: -0.05"},
      {"target": "TCF3 isoform 2 (UniProt P15923)", "log2 fold change": "inactive: 0.202"},
      {"target": "TCOF1 isoform 3 (UniProt Q13428)", "log2 fold change": "inactive: 0.001"}
    ]},
    {"compound": "CC[C@@H]1C(=O)N(C)c2cnc(Nc3ccc(C(=O)N[C@H]4CC[C@H](N5CCN(CC6CC6)CC5)CC4)cc3OC)nc2N1C(C)C [volasertib]", "test": "log2 fold change, soluble protein after heating vs DMSO (PISA); higher = thermal stabilisation; K562 cells, 10 uM, 30 min; active = over 0.2 and 3.5 SD of the protein, either way, in both replicates (recomputed)", "in_short": "as §1", "values": [
      {"target": "TK1 (UniProt K7ERV3)", "log2 fold change": "inactive: 0.055"},
      {"target": "TEX2 isoform 2 (UniProt Q8IWB9)", "log2 fold change": "inactive: -0.036"},
      {"target": "TBC1D14 (UniProt Q9P2M4)", "log2 fold change": "inactive: -0.399"},
      {"target": "TENM4 (UniProt Q6N022)", "log2 fold change": "inactive: -0.032"},
      {"target": "TCEAL1 isoform 2 (UniProt Q15170)", "log2 fold change": "inactive: -0.106"},
      {"target": "TEX30 (UniProt Q5JUR7)", "log2 fold change": "inactive: -0.221"},
      {"target": "TDRD3 isoform 3 (UniProt Q9H7E2)", "log2 fold change": "inactive: 0.058"},
      {"target": "TIFA (UniProt Q96CG3)", "log2 fold change": "inactive: 0.145"},
      {"target": "TBX1 isoform 3 (UniProt O43435)", "log2 fold change": "inactive: -0.059"},
      {"target": "TBCK (UniProt Q8TEA7)", "log2 fold change": "inactive: -0.051"},
      {"target": "TBC1D7 (UniProt Q9P0N9)", "log2 fold change": "inactive: -0.367"},
      {"target": "TCF4 isoform 3 (UniProt P15884)", "log2 fold change": "inactive: -0.124"},
      {"target": "TCTN3 (UniProt Q6NUS6)", "log2 fold change": "inactive: -0.121"},
      {"target": "TGM2 (UniProt A2A299)", "log2 fold change": "inactive: -0.292"},
      {"target": "TCF25 (UniProt Q9BQ70)", "log2 fold change": "inactive: -0.296"},
      {"target": "THEMIS2 (UniProt Q5TEJ8)", "log2 fold change": "inactive: -0.087"}
    ]},
    {"compound": "CC[C@H](C)N1C=C(C2=C(C=C(C=C21)C3=CN=C(C=C3)N4CCNCC4)C(=O)NCC5=C(C=C(NC5=O)C)C)C", "test": "log2 fold change, soluble protein after heating vs DMSO (PISA); higher = thermal stabilisation; K562 cells, 10 uM, 30 min; active = over 0.2 and 3.5 SD of the protein, either way, in both replicates (recomputed)", "in_short": "as §1", "values": [
      {"target": "TCEAL8 (UniProt Q8IYN2)", "log2 fold change": "inactive: 0.027"},
      {"target": "TK1 (UniProt K7ERV3)", "log2 fold change": "inactive: -0.163"},
      {"target": "THAP12 (UniProt O43422)", "log2 fold change": "inactive: 0.028"},
      {"target": "TESMIN (UniProt Q9Y4I5)", "log2 fold change": "inactive: 0.063"},
      {"target": "TCOF1 isoform 6 (UniProt Q13428)", "log2 fold change": "inactive: -0.132"},
      {"target": "TEX30 (UniProt Q5JUR7)", "log2 fold change": "inactive: -0.044"},
      {"target": "TGDS (UniProt O95455)", "log2 fold change": "inactive: 0.048"},
      {"target": "TC2N (UniProt Q8N9U0)", "log2 fold change": "inactive: 0.029"},
      {"target": "TFPI (UniProt P10646)", "log2 fold change": "inactive: -0.081"},
      {"target": "TBX1 isoform 3 (UniProt O43435)", "log2 fold change": "inactive: 0.067"},
      {"target": "THAP9 (UniProt Q9H5L6)", "log2 fold change": "inactive: -0.167"},
      {"target": "TBC1D2B (UniProt Q9UPU7)", "log2 fold change": "inactive: -0.025"},
      {"target": "TBCK (UniProt Q8TEA7)", "log2 fold change": "inactive: -0.026"},
      {"target": "TCTN3 (UniProt Q6NUS6)", "log2 fold change": "inactive: -0.075"},
      {"target": "THEMIS2 (UniProt Q5TEJ8)", "log2 fold change": "inactive: 0.238"}
    ]},
    {"compound": "CC[C@H](C)[C@@H](C(=O)N[C@@H]([C@@H](C)O)C(=O)N[C@@H](CC(C)C)C(=O)[C@]1(CO1)C)NC(=O)[C@H]([C@@H](C)CC)N(C)C(=O)C [epoxomicin]", "test": "log2 fold change, soluble protein after heating vs DMSO (PISA); higher = thermal stabilisation; K562 cells, 10 uM, 30 min; active = over 0.2 and 3.5 SD of the protein, either way, in both replicates (recomputed)", "in_short": "as §1", "values": [
      {"target": "TK1 (UniProt K7ERV3)", "log2 fold change": "inactive: 0.007"},
      {"target": "TBC1D2 (UniProt Q9BYX2)", "log2 fold change": "inactive: -0.238"},
      {"target": "TEX2 isoform 2 (UniProt Q8IWB9)", "log2 fold change": "inactive: 0.074"},
      {"target": "TBC1D14 (UniProt Q9P2M4)", "log2 fold change": "inactive: -0.07"},
      {"target": "TENM4 (UniProt Q6N022)", "log2 fold change": "inactive: -0.087"},
      {"target": "TDRD7 (UniProt Q8NHU6)", "log2 fold change": "inactive: 0.411"},
      {"target": "TFDP2 (UniProt Q14188)", "log2 fold change": "inactive: -0.061"},
      {"target": "TEX30 (UniProt Q5JUR7)", "log2 fold change": "inactive: 0.007"},
      {"target": "TCEAL9 (UniProt Q9UHQ7)", "log2 fold change": "inactive: 1.1"},
      {"target": "TCF20 (UniProt Q9UGU0)", "log2 fold change": "inactive: -0.122"},
      {"target": "TDRD3 isoform 3 (UniProt Q9H7E2)", "log2 fold change": "inactive: -0.074"},
      {"target": "TIFA (UniProt Q96CG3)", "log2 fold change": "inactive: -0.008"},
      {"target": "TFPI (UniProt P10646)", "log2 fold change": "inactive: 0.021"},
      {"target": "TFE3 (UniProt P19532)", "log2 fold change": "inactive: 0.063"},
      {"target": "TBC1D7 (UniProt Q9P0N9)", "log2 fold change": "inactive: 0.16"},
      {"target": "TCTN3 (UniProt Q6NUS6)", "log2 fold change": "inactive: 0.012"},
      {"target": "TCF25 (UniProt Q9BQ70)", "log2 fold change": "inactive: 0.21"},
      {"target": "THEMIS2 (UniProt Q5TEJ8)", "log2 fold change": "inactive: 0.026"},
      {"target": "TCOF1 isoform 3 (UniProt Q13428)", "log2 fold change": "inactive: -0.352"}
    ]},
    {"compound": "CCn1c(C(=O)N(C2CC2)C2CC2)cc2c3c(ncn3C)c(Nc3cc(C)n(C)n3)nc21", "test": "log2 fold change, soluble protein after heating vs DMSO (PISA); higher = thermal stabilisation; K562 cells, 10 uM, 30 min; active = over 0.2 and 3.5 SD of the protein, either way, in both replicates (recomputed)", "in_short": "as §1", "values": [
      {"target": "TCEAL8 (UniProt Q8IYN2)", "log2 fold change": "inactive: -0.068"},
      {"target": "TEX10 (UniProt Q9NXF1)", "log2 fold change": "inactive: -0.156"},
      {"target": "TEX2 isoform 2 (UniProt Q8IWB9)", "log2 fold change": "inactive: -0.049"},
      {"target": "TBC1D14 (UniProt Q9P2M4)", "log2 fold change": "inactive: -0.056"},
      {"target": "THAP12 (UniProt O43422)", "log2 fold change": "inactive: -0.154"},
      {"target": "TDRD7 (UniProt Q8NHU6)", "log2 fold change": "inactive: -0.042"},
      {"target": "TGDS (UniProt O95455)", "log2 fold change": "inactive: -0.011"},
      {"target": "TDRD15 (UniProt B5MCY1)", "log2 fold change": "inactive: -0.06"},
      {"target": "TIFA (UniProt Q96CG3)", "log2 fold change": "inactive: 0.223"},
      {"target": "TFPI (UniProt P10646)", "log2 fold change": "inactive: -0.103"},
      {"target": "TBCK (UniProt Q8TEA7)", "log2 fold change": "inactive: -0.006"},
      {"target": "TFE3 (UniProt P19532)", "log2 fold change": "inactive: -0.08"},
      {"target": "TBC1D9 (UniProt Q6ZT07)", "log2 fold change": "inactive: 0.044"},
      {"target": "TBC1D7 (UniProt Q9P0N9)", "log2 fold change": "inactive: -0.127"},
      {"target": "TGM2 (UniProt A2A299)", "log2 fold change": "inactive: -0.047"},
      {"target": "TBC1D25 (UniProt Q3MII6)", "log2 fold change": "inactive: 0.12"}
    ]}
  ]
}
